Measurements as given in the supplement of paper PMC12067093, “Discovery and optimisation of a covalent ligand for TRIM25 and its application to targeted protein ubiquitination” (Chemical Science, 2025).
Some of the results follow.

By UniProt entry, the sequences of proteins in these tests, tags left out. Where a name states a change or a piece, a line headed by the entry shows the natural chain unless it says otherwise.
UniProt P41240: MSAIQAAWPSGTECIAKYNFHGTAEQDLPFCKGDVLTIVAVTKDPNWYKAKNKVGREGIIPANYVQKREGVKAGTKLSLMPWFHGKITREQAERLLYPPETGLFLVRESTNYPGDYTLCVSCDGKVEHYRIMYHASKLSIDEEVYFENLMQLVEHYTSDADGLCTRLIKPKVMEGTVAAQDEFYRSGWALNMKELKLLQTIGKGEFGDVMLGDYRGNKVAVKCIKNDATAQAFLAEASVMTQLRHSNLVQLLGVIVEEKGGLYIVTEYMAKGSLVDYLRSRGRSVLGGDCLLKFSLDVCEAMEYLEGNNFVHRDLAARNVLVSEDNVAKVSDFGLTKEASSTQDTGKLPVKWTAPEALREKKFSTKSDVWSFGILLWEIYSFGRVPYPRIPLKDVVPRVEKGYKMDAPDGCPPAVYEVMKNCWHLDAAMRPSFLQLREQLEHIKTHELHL
UniProt Q9P2I0: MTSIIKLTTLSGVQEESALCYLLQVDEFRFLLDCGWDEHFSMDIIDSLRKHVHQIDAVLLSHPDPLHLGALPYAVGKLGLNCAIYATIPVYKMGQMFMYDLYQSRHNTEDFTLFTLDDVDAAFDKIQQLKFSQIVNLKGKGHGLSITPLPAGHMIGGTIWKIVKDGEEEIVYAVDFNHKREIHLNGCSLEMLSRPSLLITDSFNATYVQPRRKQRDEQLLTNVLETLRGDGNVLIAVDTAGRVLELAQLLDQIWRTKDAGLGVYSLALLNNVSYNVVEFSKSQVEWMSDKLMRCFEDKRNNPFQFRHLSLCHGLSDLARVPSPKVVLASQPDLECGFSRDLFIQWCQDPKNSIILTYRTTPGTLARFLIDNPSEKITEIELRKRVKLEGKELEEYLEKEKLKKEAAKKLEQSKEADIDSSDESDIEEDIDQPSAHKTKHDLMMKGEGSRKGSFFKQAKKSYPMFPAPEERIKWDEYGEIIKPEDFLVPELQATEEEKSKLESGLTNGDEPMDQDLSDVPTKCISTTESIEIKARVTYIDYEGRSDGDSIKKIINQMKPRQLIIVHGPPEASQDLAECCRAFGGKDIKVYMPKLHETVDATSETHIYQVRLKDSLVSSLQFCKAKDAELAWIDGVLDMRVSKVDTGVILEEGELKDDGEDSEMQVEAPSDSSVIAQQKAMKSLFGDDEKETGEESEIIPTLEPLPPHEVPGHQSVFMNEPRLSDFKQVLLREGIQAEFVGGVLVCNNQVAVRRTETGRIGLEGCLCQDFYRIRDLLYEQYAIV
UniProt Q6UXH1: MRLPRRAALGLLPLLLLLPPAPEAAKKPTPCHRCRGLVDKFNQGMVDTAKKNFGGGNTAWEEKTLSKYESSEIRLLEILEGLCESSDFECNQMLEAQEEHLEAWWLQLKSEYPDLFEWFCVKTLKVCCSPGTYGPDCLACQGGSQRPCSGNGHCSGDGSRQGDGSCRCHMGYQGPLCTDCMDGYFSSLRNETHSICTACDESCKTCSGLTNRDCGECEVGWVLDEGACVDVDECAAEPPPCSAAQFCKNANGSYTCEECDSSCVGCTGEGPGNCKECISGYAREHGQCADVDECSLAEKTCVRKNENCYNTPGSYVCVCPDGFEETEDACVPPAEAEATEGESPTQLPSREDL
UniProt Q9BSW2: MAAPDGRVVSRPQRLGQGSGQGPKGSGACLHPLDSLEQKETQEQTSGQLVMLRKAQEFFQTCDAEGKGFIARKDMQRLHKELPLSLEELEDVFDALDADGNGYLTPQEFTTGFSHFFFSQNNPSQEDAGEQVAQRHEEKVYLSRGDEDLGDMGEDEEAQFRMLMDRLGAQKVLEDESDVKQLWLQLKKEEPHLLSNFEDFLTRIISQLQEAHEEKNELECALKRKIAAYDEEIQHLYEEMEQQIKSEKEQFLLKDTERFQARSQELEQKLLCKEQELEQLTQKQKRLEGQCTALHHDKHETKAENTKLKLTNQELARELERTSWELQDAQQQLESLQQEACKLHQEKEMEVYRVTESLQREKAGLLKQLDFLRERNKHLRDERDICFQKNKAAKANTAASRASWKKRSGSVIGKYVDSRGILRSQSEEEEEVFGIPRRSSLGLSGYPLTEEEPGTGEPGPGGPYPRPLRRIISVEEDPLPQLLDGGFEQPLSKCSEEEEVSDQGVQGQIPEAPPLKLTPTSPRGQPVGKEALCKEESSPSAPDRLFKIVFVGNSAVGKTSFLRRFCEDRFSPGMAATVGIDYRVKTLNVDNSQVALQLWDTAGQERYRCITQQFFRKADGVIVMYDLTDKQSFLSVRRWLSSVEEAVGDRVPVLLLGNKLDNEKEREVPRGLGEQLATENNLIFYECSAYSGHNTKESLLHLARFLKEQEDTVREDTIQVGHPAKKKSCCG
UniProt Q9Y646: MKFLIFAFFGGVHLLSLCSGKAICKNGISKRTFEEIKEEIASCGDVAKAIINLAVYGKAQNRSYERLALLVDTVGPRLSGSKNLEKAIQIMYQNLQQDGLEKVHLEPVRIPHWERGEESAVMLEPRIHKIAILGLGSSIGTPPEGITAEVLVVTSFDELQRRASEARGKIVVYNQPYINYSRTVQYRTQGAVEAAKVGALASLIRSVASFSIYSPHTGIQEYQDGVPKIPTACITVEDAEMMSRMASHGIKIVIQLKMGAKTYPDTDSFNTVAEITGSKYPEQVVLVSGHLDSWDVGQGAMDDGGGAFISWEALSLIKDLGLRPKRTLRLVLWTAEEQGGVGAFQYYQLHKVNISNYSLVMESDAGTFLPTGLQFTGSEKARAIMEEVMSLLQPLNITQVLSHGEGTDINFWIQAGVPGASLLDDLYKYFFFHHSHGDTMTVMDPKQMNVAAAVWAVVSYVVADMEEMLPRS
UniProt P33240: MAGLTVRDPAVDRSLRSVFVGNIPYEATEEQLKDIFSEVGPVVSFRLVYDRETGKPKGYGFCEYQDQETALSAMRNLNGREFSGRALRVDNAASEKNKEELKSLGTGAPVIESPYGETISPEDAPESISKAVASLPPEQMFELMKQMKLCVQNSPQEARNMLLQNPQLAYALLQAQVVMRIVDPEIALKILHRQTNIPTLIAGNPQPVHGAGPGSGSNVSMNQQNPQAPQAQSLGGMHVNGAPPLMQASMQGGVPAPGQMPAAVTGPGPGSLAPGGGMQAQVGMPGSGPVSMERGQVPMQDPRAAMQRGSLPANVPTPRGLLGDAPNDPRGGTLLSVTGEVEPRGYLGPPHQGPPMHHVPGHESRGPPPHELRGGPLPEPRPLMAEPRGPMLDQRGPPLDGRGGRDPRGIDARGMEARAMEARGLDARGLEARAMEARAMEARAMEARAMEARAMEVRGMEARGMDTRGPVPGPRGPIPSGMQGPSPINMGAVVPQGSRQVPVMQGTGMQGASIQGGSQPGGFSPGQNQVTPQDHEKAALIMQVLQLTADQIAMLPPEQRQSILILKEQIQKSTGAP
UniProt P35221: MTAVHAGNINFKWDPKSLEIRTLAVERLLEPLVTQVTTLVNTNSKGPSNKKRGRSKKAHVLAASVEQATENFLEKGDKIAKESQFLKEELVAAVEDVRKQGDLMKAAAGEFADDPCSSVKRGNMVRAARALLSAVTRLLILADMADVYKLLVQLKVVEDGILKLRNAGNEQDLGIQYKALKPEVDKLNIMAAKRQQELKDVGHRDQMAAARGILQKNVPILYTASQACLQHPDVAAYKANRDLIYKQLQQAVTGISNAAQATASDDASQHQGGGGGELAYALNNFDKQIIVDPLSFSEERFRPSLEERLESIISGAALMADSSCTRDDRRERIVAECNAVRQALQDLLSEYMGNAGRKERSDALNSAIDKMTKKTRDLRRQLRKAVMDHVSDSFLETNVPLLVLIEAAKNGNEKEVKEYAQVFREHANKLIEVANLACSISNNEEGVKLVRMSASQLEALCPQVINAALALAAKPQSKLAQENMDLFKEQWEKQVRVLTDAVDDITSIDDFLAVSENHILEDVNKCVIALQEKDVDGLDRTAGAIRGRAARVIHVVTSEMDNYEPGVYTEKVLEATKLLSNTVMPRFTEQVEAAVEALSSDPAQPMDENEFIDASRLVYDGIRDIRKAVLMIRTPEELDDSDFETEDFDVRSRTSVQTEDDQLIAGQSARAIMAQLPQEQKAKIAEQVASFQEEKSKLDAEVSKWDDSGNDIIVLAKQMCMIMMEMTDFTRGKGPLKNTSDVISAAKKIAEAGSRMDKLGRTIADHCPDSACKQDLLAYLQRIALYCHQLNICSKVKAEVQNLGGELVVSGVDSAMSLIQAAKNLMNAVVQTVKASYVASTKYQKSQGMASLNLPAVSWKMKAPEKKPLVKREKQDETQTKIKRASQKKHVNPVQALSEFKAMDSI
UniProt Q96HD1: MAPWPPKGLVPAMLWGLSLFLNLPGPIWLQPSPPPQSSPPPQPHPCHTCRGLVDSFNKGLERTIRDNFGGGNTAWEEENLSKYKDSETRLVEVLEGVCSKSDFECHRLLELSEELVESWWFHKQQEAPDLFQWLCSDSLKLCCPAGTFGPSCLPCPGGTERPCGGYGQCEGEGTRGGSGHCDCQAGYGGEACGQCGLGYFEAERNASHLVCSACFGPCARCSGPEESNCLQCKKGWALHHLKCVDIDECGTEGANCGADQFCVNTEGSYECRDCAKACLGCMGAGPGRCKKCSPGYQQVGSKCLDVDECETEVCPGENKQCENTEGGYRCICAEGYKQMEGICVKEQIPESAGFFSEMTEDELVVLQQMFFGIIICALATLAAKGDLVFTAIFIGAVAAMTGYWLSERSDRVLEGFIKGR
UniProt P55060: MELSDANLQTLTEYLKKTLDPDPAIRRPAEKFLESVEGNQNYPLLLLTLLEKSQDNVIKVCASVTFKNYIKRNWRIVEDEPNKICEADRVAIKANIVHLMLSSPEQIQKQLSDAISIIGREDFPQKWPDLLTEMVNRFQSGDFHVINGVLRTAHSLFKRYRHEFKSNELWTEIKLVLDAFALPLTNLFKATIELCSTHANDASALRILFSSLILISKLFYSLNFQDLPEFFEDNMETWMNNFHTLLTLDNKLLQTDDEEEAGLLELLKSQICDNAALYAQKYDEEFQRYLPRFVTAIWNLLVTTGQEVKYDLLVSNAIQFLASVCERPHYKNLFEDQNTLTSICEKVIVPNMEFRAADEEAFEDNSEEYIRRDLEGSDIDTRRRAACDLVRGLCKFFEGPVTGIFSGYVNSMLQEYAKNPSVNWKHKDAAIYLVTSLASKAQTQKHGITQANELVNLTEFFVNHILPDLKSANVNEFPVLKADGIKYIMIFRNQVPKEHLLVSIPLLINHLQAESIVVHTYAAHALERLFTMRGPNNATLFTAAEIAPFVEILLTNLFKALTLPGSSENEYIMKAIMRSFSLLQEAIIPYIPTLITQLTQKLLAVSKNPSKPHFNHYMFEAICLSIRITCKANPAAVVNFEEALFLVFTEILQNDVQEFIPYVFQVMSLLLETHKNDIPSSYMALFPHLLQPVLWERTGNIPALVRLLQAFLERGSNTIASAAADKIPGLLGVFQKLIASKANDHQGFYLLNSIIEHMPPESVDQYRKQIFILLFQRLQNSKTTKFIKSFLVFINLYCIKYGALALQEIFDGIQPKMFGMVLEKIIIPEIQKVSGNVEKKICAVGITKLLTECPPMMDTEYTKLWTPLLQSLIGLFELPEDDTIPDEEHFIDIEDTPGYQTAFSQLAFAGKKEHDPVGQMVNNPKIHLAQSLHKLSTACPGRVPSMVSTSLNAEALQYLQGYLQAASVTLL
UniProt P49711: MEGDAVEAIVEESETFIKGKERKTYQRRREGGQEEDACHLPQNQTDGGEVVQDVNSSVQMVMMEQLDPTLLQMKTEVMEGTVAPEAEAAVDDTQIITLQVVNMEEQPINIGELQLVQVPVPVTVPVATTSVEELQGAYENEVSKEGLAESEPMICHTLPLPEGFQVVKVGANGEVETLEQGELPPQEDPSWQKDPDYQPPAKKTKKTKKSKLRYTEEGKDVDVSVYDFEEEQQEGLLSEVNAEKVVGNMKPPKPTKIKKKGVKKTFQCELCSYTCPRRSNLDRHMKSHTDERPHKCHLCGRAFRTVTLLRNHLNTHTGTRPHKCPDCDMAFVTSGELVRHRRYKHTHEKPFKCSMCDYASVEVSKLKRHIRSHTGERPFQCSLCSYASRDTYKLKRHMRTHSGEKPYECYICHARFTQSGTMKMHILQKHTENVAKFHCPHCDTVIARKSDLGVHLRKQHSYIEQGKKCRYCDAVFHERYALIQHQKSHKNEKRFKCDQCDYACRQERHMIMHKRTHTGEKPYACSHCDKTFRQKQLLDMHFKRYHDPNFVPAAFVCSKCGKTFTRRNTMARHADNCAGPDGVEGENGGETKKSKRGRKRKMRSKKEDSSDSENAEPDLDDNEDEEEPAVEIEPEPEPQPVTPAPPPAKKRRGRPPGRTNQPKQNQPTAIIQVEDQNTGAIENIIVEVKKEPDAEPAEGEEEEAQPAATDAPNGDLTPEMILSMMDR

What follows are targets tested with CC1Cc2ccccc2N1C(=O)C1CCCN(C1)C(=O)CCl (mixture of isomers) [TRIM25 ligand 11 (diastereomer mixture)] (assay: probe-labelled cysteine peptide fold change vs DMSO (competition) (log2 fold change); higher = less target engagement (more negative = stronger competition)). Settings: 10 µM; THP-1; incubation time: 4 h.
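Further: competitive chemoproteomic profiling in live THP-1 cells with an iodoacetamide desthiobiotin (IA-DTB) probe, comparing probe-labelled peptide intensities in compound-treated cells against DMSO-treated controls.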

Row | Target | probe-labelled cysteine peptide fold change
1 | CPM_P14384_138_KPDCYYSIGR (UniProt P14384) | -0.00986
2 | CSK_P41240_122_ESTNYPGDYTLCVSCDGK (UniProt P41240) | 0.0244
3 | CRTAP_O75718_317_NAAPCAVSYLLFDQNDK (UniProt O75718) | 0.208
4 | CRYL1_Q9Y2S2_141_QCIVAHPVNPPYYIPLVELVPHPETAPTTVDR (UniProt Q9Y2S2) | 0.0328
5 | CPSF2_Q9P2I0_34_FLLDCGWDEHFSMDIIDSLRK (UniProt Q9P2I0) | 0.156
6 | CRELD2_Q6UXH1_294_EHGQCADVDECSLAEK (UniProt Q6UXH1) | 0.0157
7 | CORO1C_Q9ULV4_283_NMQEPIALHEMDTSNGVLLPFYDPDTSIIYLCGK (UniProt Q9ULV4) | -0.0943
8 | CRACR2A_Q9BSW2_29_GSGACLHPLDSLEQK (UniProt Q9BSW2) | -0.1
9 | CPQ_Q9Y646_233_IPTACITVEDAEMMSR (UniProt Q9Y646) | -0.00737
10 | CTNNB1_P35222_520_NLALCPANHAPLREQGAIPR (UniProt P35222) | -0.269
11 | CSTF2_P33240_62_GYGFCEYQDQETALSAMR (UniProt P33240) | -0.512
12 | CTNNA1_P35221_772_TIADHCPDSACK (UniProt P35221) | -0.0482
13 | CTBP2_P56545_44_DCTVEMPILK (UniProt P56545) | 0.04
14 | CRELD1_Q96HD1_229_CSGPEESNCLQCK (UniProt Q96HD1) | 0.0143
15 | CSE1L_P55060_842_KICAVGITK (UniProt P55060) | -0.19
16 | CTCF_P49711_356_CSMCDYASVEVSK (UniProt P49711) | -0.0609
